# Library screen at single concentrations

Mtb cholesterol medium: 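Phenotypic screen: M. tuberculosis growth, cholesterol and DPPC medium, 4 days; the read-out is not stated. Compounds at 50 µM. The record gives no direction; compounds that gave an IC50 in retests scored well above the rest, so higher reads as more growth inhibition. About 69,000 compounds were tested under these conditions; 0.54% (about 370) showed 50% or more at least once.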
Mtb glucose medium: 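Whole-cell growth test on Mycobacterium tuberculosis, read after 3 days in glucose-containing 7H9 medium; the read-out is not stated. Tested at 50 µM. Direction is inferred from retests: higher values go with more growth inhibition. Size under these conditions: about 69,000 compounds, about 760 of them at 50% or above in at least one test.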

Values are the deposited “Percent Effect”, in %. The controls that fix the scale are not given in the record; negative values are as filed. Compounds were drawn at random from those tested, without regard to their results. Two or more numbers in one place are separate tests of the same structure; such repeats can differ widely.

SMILES	Mtb cholesterol medium	Mtb glucose medium
CCc1nc(CN(C)C2CCN(CCn3cccn3)C2)no1 (centres undefined)	14.4	6.87
[H][C@@]12OCCN(C(=O)c3ccnnc3)[C@@]1([H])CC[C@@H]2OCc1cccnc1	-8.629	3.803 and 1.601
CC(=O)NC[C@H]1COCc2nc3cc(S(C)(=O)=O)ccc3n21	-21.65	-4.376 and -40.7
COC(=O)c1ccc2ccn(CC3CCNC3)c(=O)c2c1 (centres undefined)	-1.779	15.78 and 1.368
Cc1cc(CN2CCN(C(=O)NCc3cccs3)CC2)on1	3.395	24.2
O=c1ccc(-n2ccnc2)nn1CCNS(=O)(=O)c1ccc(Br)cc1	-12.44	-6.561 and -7.58
CCOCCOC(C)C(=O)NCc1cn2cc(Br)ccc2n1 (centres undefined)	-7.382	2.784 and -15.15
Cc1cc(C)n(C2CCCN(C(=O)Cc3cn4ccsc4n3)C2)n1 (centres undefined)	-6.1	-7.447
O=C(O)C(F)(F)F.[H][C@]12CCN(S(=O)(=O)c3ccccc3)C[C@@]1([H])OCCN(C)C2	5.921	-4.703 and -21.63
N#CCCN(Cc1ccco1)C(=O)Cc1ccc(-n2cnnn2)cc1	-9.382	-22.27 and -7.783
Cn1ncc(N2CCC(CNC(=O)[C@@H](N)C3CCCCC3)CC2)cc1=O	-10.13 and -14.76	-44.71
Cc1cc(CN2CCN(C(=O)C(C(C)C)n3cncn3)CC2)on1 (centres undefined)	10.52	-11.82
COc1c(CNCC(O)c2ccccc2)c(C(C)C)nn1C (centres undefined)	3.434	-14.52
COCCNS(=O)(=O)c1cccc2c1CN(C(=O)c1cnccn1)CC2	-14.55	-1.418 and 0.1643
O=C(O)C(F)(F)F.O=C(O)C(F)(F)F.c1cncc(-c2ncnc3c2CCN(Cc2cccs2)CC3)c1	-42.61	-55.37
COc1ccc(-c2nnc(SC(C)C(=O)NC3CC3)[nH]2)c(OC)c1 (centres undefined)	0.4214	-3.03 and 4.864
COc1nc2ccn(CCc3cc(O)nc(C)n3)c(=O)c2cc1C#N	-9.202	-22.64
O=C(O)C(F)(F)F.O=C(O)C(F)(F)F.O=C(O)C(F)(F)F.[H][C@@]12C[C@@H](OCc3cccc(C)n3)CN1CCN(c1ncc(C)cn1)C2	10.68	3.657 and -4.414
O=C(CC1CCCN1S(=O)(=O)N1CCCCC1)c1cccs1 (centres undefined)	12.04 and 7.376	-2.449
CCc1ccccc1-n1nnc(C(=O)O)c1-c1ccccn1	-3.481	-6.252 and 13.6
CNc1cncc(C2CCCN2c2cc(C)ncn2)n1 (centres undefined)	3.492	-44.94
O=S(=O)(CCNCCn1cccn1)c1ccccc1	-0.03302	-9.71
COCCN(Cc1ccc(F)cc1C#N)CC(F)(F)F	4.501	-3.646
OCc1nnn2c1CN(Cc1cccnc1)CCC2	-8.337	-13.88
Cc1cc(N2CCCC2)c(C#N)c(C)n1	-4.843	8.75
CCN(CCn1cccn1)C(=O)CN1C(=O)OC[C@@H]1C(C)C	-5.315 and -10.28	0.5992 and -2.517
Cc1cc(-c2nnc(SCC(=O)O)n2C(C)c2ccccc2)nn1C (centres undefined)	-11.83	-0.7678 and -12.22
CC(CC#N)N(C)Cc1ccc(F)cc1C#N (centres undefined)	-6.435 and 0.9605	-0.383 and 15.85
Cc1nn2c(N3CCC(C(N)=O)CC3)cc(-c3ccccc3)nc2c1C	-5.879 and -5.084	6.346
O=C1CCN(C(=O)C2(c3ccc(F)cc3)CCCCC2)CCN1	16.67	-11.08
CCCc1nc(C(C)(C)NC(=O)C2CC(=O)N(C3CCCC3)C2)no1 (centres undefined)	0.01087	-20.14 and -2.404
CC(C)c1ccc(C(C)N2CCCN(C(N)=O)CC2)cc1 (centres undefined)	11.58	11.21 and -35.44
CN(C)C(=O)CN1CCC2(CCN(C(=O)N(C)C)CC2)C1=O	-20.47	-32.72
Cc1ccc(C(=O)O)cc1-c1cccc(C(C)N(C)C)c1 (centres undefined)	-23.97	-17.72
CCc1cnccc1C(=O)Nc1ccc(C(N)=O)nc1	9.723	-18.06
CC(=O)N[C@H]1CCN(C(=O)c2cc(Cn3cnc4ccccc43)[nH]n2)C1	-0.502	-23.86 and 5.216
Cc1cc(CNc2cccc(C(=O)N(C)c3ccccc3)c2)no1	8.507	19.96
[H][C@]12CC[C@]([H])(CN(S(=O)(=O)N(C)C)C1)N(C/C=C/c1ccc(F)cc1)C2	-7.342	-58.45
COc1ccc(-c2cc(N)on2)cc1OC	-1.447	20.57
Cc1ccc(CC(=O)N2CCCCC2Cn2cccn2)cn1 (centres undefined)	7.05	-15.72
CCc1nc(CNC2CCCCNC2=O)cs1 (centres undefined)	0.2696	10.75
COC1CN(C(=O)C2CC2)CCC(=O)N(C)c2ccccc21 (centres undefined)	-18.36	-22.09
CC1(C)OCC(CNC(=O)c2cnn(-c3cc(Cl)ccc3Cl)c2N)O1 (centres undefined)	-18.93	-7.988
O=C(NCC1CC1)c1cc2c(s1)CCN2C(=O)c1ccc(F)cc1	2.593	2.892
Cc1ccc(-c2noc(C(C)(C)NS(C)(=O)=O)n2)cc1F	-6.312	31
O=C(O)c1ccc(CC2CCN(Cc3ccc(-c4cc[nH]n4)o3)C2)cc1 (centres undefined)	-10.21	-13.25
CCOc1cc(CN(C)CCC(=O)OC)ccc1OC(F)F	7.271	20.65
CNC(=O)C(C)(C)CNC(=O)Nc1ccncc1C	8.234 and 3.916	-26.22 and 2.728
[H][C@@]12CS(=O)(=O)C[C@]1([H])NCCN2C(=O)COc1ccc2cccnc2c1	-63.26	-4.738
Cc1nn(C)c2cnn(CC(=O)NCc3ccc4c(c3)OCO4)c12	-1.465	9.875
[H][C@]12CCN(S(=O)(=O)C3CC3)C[C@@]1([H])OCCN(C(C)=O)C2	6.052	6.532
CS(=O)(=O)N1CCC(CNC(=O)C2CCC2)CC1	7.408	-21.93
CC(=O)N1CCC(c2cncc(Oc3ccccc3)n2)CC1	-17.26	-16.73
CC(OCC1CC1)C(=O)Nc1ncccc1I (centres undefined)	-23.49	12.1
O=C(c1cccc(CN2CCCC2)c1)N1CCCC(n2cncn2)C1 (centres undefined)	-28.57	-28.84
CCOC(=O)CSc1nnc([C@@H](N)CC(C)C)o1.Cl	-0.2265	19.08 and 10.88
Cc1cc(CN2CCC(CNC(=O)CN3CCCCCC3)C2)[nH]n1 (centres undefined)	-2.59 and -2.993	-15.43 and -0.2371
NC(=O)C1CCN(c2ncccc2C(=O)N2CCc3ccccc32)C1 (centres undefined)	-20.6	-24.53
CC(C)c1nc(C2CCCN2C(=O)c2cnns2)no1 (centres undefined)	10.28	-20.23
Cc1cc(C)n(CC2CCCN2C(=O)c2ccc3[nH]cnc3c2)n1 (centres undefined)	4.847	-23.41
CC1(C)OCC(CNC(=O)c2cnn(-c3cccc(Cl)c3Cl)c2N)O1 (centres undefined)	-19.47	-7.585

Source: ChEMBL document CHEMBL3988442, “University of Dundee, Small-Polar-MMV Screening Library” (2021).